# Data as given in patent US20200309767A1, “HIGH-THROUGHPUT IMAGING-BASED METHODS FOR PREDICTING CELL-TYPE-SPECIFIC TOXICITY OF XENOBIOTICS WITH DIVERSE CHEMICAL STRUCTURES” (priority 2015, published 2020).
# Assays:
# primary human PTCs [1] = type: cell-based
# primary human PTCs [2] = type: cell-based; remark: listed apart in the source
# HK-2 cell line = type: cell-based, human
substance,measurement,setting,value
Gentamicin,"Average nephrotoxicity test accuracy, HPTC-B (Multi)",primary human PTCs [1],100%
same,"Average nephrotoxicity test accuracy, HPTC-B (Single)",primary human PTCs [1],0%
same,"Average nephrotoxicity test accuracy, HPTC-A (Single)",primary human PTCs [2],90%
same,"Average nephrotoxicity test accuracy, HK-2 (Multi)",HK-2 cell line,100%
same,"Average nephrotoxicity test accuracy, HK-2 (Single)",HK-2 cell line,90%
